From article PMC7450096, “Structural mechanism for replication origin binding and remodeling by a metazoan origin recognition complex and its co-loader Cdc6” (Nature Communications, 2020) come the findings set out here.

What all share (experiment): cryo-EM structure; DmORC^Orc1ΔN (2.5 μM), duplex DNA (3 μM; 60 bp AT-rich, 84 bp AT-rich, 60 bp poly(dA·dT) or 60 bp GC-rich) and DmCdc6ΔN (6.8 μM) assembled at 25 °C in 25 mM HEPES-KOH pH 7.6, 250 mM potassium acetate, 10 mM magnesium acetate, 1 mM DTT, 1 mM ATP; purified by gel filtration; both purified
Test [1] addresses T1, Drosophila Orc2, subunit of DmORC^Orc1ΔN (Drosophila, UniProt Q24168 1-618).
T1 construct: Orc2, Drosophila; only Orc1 is named as truncated in DmORC^Orc1ΔN; also called DmOrc2; source: Hi5 insect cells, co-expressed with the other ORC subunits, purified as part of DmORC^Orc1ΔN
T1 sequence: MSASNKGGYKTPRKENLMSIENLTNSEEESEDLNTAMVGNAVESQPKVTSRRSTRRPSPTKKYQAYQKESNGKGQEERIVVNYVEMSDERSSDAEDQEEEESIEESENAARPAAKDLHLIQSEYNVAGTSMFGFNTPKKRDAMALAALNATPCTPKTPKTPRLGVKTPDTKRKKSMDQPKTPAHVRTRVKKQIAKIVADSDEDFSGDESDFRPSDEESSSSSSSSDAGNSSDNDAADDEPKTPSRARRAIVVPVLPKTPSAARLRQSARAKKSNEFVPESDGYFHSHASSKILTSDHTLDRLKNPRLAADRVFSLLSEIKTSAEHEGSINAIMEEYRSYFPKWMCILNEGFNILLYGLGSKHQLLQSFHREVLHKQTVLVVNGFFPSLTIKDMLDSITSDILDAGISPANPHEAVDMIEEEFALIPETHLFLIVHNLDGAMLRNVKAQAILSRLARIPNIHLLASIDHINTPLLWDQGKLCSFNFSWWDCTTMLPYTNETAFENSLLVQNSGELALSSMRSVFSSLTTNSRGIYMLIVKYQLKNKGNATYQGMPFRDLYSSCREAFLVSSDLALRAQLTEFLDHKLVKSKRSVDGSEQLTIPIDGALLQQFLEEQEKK

In test [2] the target is T2, Drosophila Orc5, subunit of DmORC^Orc1ΔN (Drosophila) (UniProt Q24169).
T2 sequence: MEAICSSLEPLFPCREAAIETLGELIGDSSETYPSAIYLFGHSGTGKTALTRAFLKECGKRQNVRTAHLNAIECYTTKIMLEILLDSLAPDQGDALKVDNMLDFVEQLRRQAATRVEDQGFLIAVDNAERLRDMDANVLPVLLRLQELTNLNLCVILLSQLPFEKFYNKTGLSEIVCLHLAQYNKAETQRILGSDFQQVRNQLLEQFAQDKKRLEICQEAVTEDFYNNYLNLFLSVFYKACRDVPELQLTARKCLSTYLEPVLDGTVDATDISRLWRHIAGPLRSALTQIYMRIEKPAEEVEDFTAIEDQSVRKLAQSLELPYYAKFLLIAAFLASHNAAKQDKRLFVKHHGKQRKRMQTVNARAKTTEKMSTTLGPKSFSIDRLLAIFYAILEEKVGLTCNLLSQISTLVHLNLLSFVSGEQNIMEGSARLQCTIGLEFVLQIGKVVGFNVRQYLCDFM

For test [3], the target named is T3, Drosophila Orc3, subunit of DmORC^Orc1ΔN (Drosophila, UniProt Q7K2L1 1-721).
T3 construct: Orc3, Drosophila; only Orc1 is named as truncated in DmORC^Orc1ΔN; also called DmOrc3; source: Hi5 insect cells, co-expressed with the other ORC subunits, purified as part of DmORC^Orc1ΔN
T3 sequence: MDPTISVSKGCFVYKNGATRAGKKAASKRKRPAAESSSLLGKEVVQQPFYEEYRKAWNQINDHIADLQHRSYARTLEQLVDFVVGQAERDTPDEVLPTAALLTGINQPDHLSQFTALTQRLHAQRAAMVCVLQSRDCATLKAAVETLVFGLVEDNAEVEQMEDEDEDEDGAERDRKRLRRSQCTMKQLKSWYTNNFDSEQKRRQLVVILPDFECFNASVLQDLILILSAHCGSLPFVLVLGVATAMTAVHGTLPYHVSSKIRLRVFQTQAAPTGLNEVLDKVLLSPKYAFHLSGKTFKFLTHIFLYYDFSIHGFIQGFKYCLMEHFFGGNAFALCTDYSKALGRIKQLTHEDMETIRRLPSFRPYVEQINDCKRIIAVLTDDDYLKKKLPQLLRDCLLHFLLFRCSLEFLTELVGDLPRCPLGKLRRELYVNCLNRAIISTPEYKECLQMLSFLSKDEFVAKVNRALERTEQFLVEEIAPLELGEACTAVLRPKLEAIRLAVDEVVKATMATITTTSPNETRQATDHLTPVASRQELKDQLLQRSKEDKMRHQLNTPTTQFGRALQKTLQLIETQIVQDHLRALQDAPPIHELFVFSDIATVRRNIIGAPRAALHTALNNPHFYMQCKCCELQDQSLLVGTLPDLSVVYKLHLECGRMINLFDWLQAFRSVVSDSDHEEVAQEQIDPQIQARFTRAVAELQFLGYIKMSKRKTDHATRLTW

These are yes or no findings as the source states them, for the method shown. Some binding calls cover weakened binding; strength is not graded here.

B1: Drosophila Orc3, subunit of DmORC^Orc1ΔN (protein, UniProt Q7K2L1 1-721)
chain: T3 sequence
For B1, the binding entry in test [1] is “binds”.

B2: Drosophila Orc4, subunit of DmORC^Orc1ΔN (protein, UniProt Q9W102 1-459)
chain: MPEADRELVSIRRFLKERLQRDYTTLRGYAKERSNVRLLLQRTAEMGESNSLLLLGPRGSGKTTLINSVLADLLPNKSFGENTLIVHLDGNLHTDDRVALKSITVQMQLENAADGKVFGSFAENLAFLLQCLKAGGKHSKSVIFILEEFDLFCAHHNQTLLYNLFDVSQSAQAPICVLGVTCRLDVIELLEKRVKSRFSHRQVFLFPSLRRFEDYVDLCRDLLSLPTGNSLLLAAEKIYNLQNIQSGALYFSRNHFDPGEYGFSPRLRDAWNKQICKVLATQQARSTLQALHDFDISEAYLKNFLFRLVAHLRPQSPHITAEKMAAVGSQFEGDDKIELLCGLSVLELCLIIAIKHHSQIYDRDSFNFEIIYARFSKFAKVSTTMQAVERSIVLKAFEHLRIAELIMPLTGGAGGGVGKVQKEFEMHKLALTYSQIHHCMQRYQALPTEVAQWAQSSLI
Consider B2, for which the binding entry in test [2] is listed as “binds”.

B3: Drosophila Orc5, subunit of DmORC^Orc1ΔN (protein, UniProt Q24169 1-460)
chain: T2 sequence
With B3, the binding entry in test [3] was “binds”.
